Assay results: patent US8748369B2, “Use of targeted nitroxide agents in bone healing” (University of Pittsburgh-Of the Commonwealth System of …, priority 2009, dated 2014)

System: rats subjected to volume-controlled hemorrhagic shock
Test: Survival of rats subjected to volume-controlled hemorrhagic shock
Assay type: in vivo, rat
Protocol: Survival of Rats Subjected to Volume-controlled Hemorrhagic Shock. Following surgical preparation and a 5-min stabilization period to obtain baseline readings, rats were subjected to hemorrhagic shock. Bleeding was carried out in 2 phases.
Initially, 21 ml/kg of blood was withdrawn over 20 min. Immediately thereafter, an additional 12.5 ml/kg of blood was withdrawn over 40 min. Thus, hemorrhage occurred over a total period of 60 min and the total blood loss was 33.5 ml/kg or approximately 55% of the total blood volume. Rats were randomly assigned to receive XJB-5-131 (2 μmmol/kg) or its vehicle, a 33:67 (v/v) mixture of DMSO and normal saline. XJB-5-131 solution or vehicle alone was administered as a continuous infusion during the last 20 min of the hemorrhage period. The total volume of fluid infused was 2.8 ml/kg and it was administered intravenously using a syringe pump (KD100, KD Scientific, New Hope, Pa.). […] At the end of the 6 hour observation period, animals that were still alive were euthanized with an overdose of KCl.
Blood pressure was recorded continuously using a commercial strain-gauge transducer, amplifier, and monitor (590603a, SpaceLabs, Redmond, Wash.). Blood samples (0.5 ml) were collected from the jugular vein at the beginning of hemorrhage (baseline), at the end of hemorrhage (shock) and at the end of resuscitation (resuscitation). Hemoglobin concentration [Hb], lactate and glucose concentration were determined using an auto-analyzer (Model ABL 725, Radiometer Copenhagen, Westlake, Ohio).
A total of sixteen rats were tested in this study. Rats were treated with 2.8 ml/kg of vehicle or the same volume of XJB-5-131 solution during the final 20 min of the bleeding protocol. The total dose of XJB-5-131 infused was 2 μmol/kg. Following profound hemorrhagic shock consistent with the protocol described above for the prior studies, thirteen survived for at least 60 min and received the full dose of either XJB-5-131 solution or the vehicle, a 33:67 (v/v) mixture of DMSO and normal saline. […] None of the between-group differences were statistically significant.

[1] = End of first phase of hemorrhage
[2] = End of second phase of hemorrhage, 2 μmol/kg IV

## CC(C)C[C@@H](/C=C/[C@H](Cc1ccccc1)C(=O)N1CCC[C@H]1C(=O)N[C@H](C(=O)N[C@@H](CCCNC(=O)OCc1ccccc1)C(=O)NC1CC(C)(C)N([O])C(C)(C)C1)C(C)C)NC(=O)OC(C)(C)C [XJB-5-131]
Baseline
  Blood Hb concentration: 12.7 ± 0.3 g/dL
  Blood glucose concentration: 134 ± 4 mg/dL
  Blood lactate concentration: 1.8 ± 0.2 mEq/L
[1]
  Blood Hb concentration: 10.7 ± 0.3 g/dL
  Blood glucose concentration: 228 ± 24 mg/dL
  Blood lactate concentration: 5.7 ± 0.8 mEq/L
[2]
  Blood Hb concentration: 9.4 ± 0.3 g/dL
  Blood glucose concentration: 201 ± 38 mg/dL
  Blood lactate concentration: 5.6 ± 1.2 mEq/L
